The list does not hold the whole screen: it is rich in T/C values a quarter to a half above the control, in often repeated tests (any T/C) and in doses without a T/C. Other doses and runs of a compound stand elsewhere. T/C: endpoint of the treated group in % of that of the vehicle group. Some entries give survivors of the animals treated and no T/C: the source files T/C as zero there, which appears to mark a toxic dose or a test without result, not a measured value. Some doses without a T/C left all or most animals alive at the check, yet need not have been tolerated: the source hardly ever lists a survival T/C far under the control, and the zero likely stands for such cases as well. Survivors were counted at the toxicity check, usually on the fifth day, unless a day is given; later deaths do not show. Schedule codes are those of the source, read here as Q, the interval in days (D) or hours (H), X, the number of doses. Some doses were run more than once; their values stand side by side, smallest first. Some schedules carry Z or #; the key to these is not given. For survival time, the PubChem record calls one and a half times the control and up active, and a quarter to a half above the control has no call in these data; cut-offs in other NCI protocols can differ. Some T/C values carry the count of animals alive at the toxicity check (mostly the fifth day); where none is given, no animal had died by that day.
System: L1210 leukemia ip in BDF1 mice, survival T/C
Assay: NCI In Vivo Anticancer Drug Screen. Data for tumor model L1210 Leukemia (intraperitoneal) in B6D2F1 (BDF1) mice
Conditions: T/C endpoint: mean survival time, higher T/C = longer survival
[1] = dose: 125.0 mg/kg/injection, schedule: Q01DX015 (ip), vehicle: methylcellulose (MC)
[2] = dose: 250.0 mg/kg/injection, schedule: Q01DX015 (ip), vehicle: methylcellulose (MC)
[3] = dose: 500.0 mg/kg/injection, schedule: Q01DX015 (ip), vehicle: methylcellulose (MC)
[4] = dose: 400.0 mg/kg/injection, schedule: Q01DX001 (ip), vehicle: saline
[5] = dose: 600.0 mg/kg/injection, schedule: Q01DX001 (ip), vehicle: saline
[6] = dose: 100.0 mg/kg/injection, schedule: Q01DX Z (ip), vehicle: carboxymethylcellulose (CMC)
[7] = dose: 400.0 mg/kg/injection, schedule: Q01DX009 (ip), vehicle: Klucel (hydroxypropylcellulose) (HPC)
[8] = dose: 100.0 mg/kg/injection, schedule: Q04DX003 (ip), vehicle: saline with Tween-80
[9] = dose: 200.0 mg/kg/injection, schedule: Q01DX009 (ip), vehicle: Klucel (hydroxypropylcellulose) (HPC)
[10] = dose: 100.0 mg/kg/injection, schedule: Q01DX009 (ip), vehicle: Klucel (hydroxypropylcellulose) (HPC)
[11] = dose: 200.0 mg/kg/injection, schedule: Q01DX001 (ip), vehicle: saline
[12] = dose: 400.0 mg/kg/injection, schedule: Q04DX003 (ip), vehicle: saline with Tween-80
[13] = dose: 100.0 mg/kg/injection, schedule: Q01DX001 (ip), vehicle: saline

With `CCN=C(c1ccc(NC(=O)c2ccc(C(=O)Nc3ccc(C(=NCC)N(CC)C(=O)OC)cc3)cc2)cc1)N(CC)C(=O)OC` the T/C (dose: 3.0 mg/kg/injection, schedule: Q01DX015 (ip), vehicle: methylcellulose (MC)) was 130 % of control, the T/C (dose: 3.75 mg/kg/injection, schedule: Q01DX015 (ip), vehicle: methylcellulose (MC)) was 148 % of control and the T/C (dose: 6.0 mg/kg/injection, schedule: Q01DX015 (ip), vehicle: methylcellulose (MC)) was 131 % of control. The survivor count (dose: 12.0 mg/kg/injection, schedule: Q01DX015 (ip), vehicle: methylcellulose (MC)) was 1 of 6, the survivor count (dose: 15.0 mg/kg/injection, schedule: Q01DX015 (ip), vehicle: methylcellulose (MC)) was 0 of 6 and the survivor count (dose: 30.0 mg/kg/injection, schedule: Q01DX015 (ip), vehicle: methylcellulose (MC)) was 0 of 6. The survivor count (dose: 62.0 mg/kg/injection, schedule: Q01DX015 (ip), vehicle: methylcellulose (MC)) was 0 of 6, the survivor count [1] was 0 of 6 and the survivor count [2] was 0 of 6. The survivor count [3] was 0 of 6.

For `CC(C)/C(=N\[N+](C)(C)C)c1ccccc1`, the survivor count (dose: 150.0 mg/kg/injection, schedule: Q01DX001 (ip), vehicle: saline) was 0 of 6 and the survivor count (dose: 300.0 mg/kg/injection, schedule: Q01DX001 (ip), vehicle: saline) was 0 of 6.

For `Fc1cccc(CSc2ncnc3nc[nH]c23)c1`, the T/C (dose: 100.0 mg/kg/injection, schedule: Q01DX009 (ip), vehicle: saline) was 126 % of control, the T/C (dose: 175.0 mg/kg/injection, schedule: Q01DX001 (ip), vehicle: saline) was 144 % of control and the T/C (dose: 200.0 mg/kg/injection, schedule: Q01DX009 (ip), vehicle: saline) was 139 % of control [5 of 6 alive]. For the same compound, the T/C (dose: 265.0 mg/kg/injection, schedule: Q01DX001 (ip), vehicle: saline) was 127 % of control, the T/C [4] was 148 % of control [5 of 6 alive] and the survivor count [4] was 0 of 6. For the same compound, the survivor count (dose: 400.0 mg/kg/injection, schedule: Q01DX009 (ip), vehicle: saline) was 3 of 6, the T/C [5] was 131 % of control [5 of 6 alive] and the survivor count [5] was 0 of 6 and 1 of 6. For the same compound, the survivor count (dose: 800.0 mg/kg/injection, schedule: Q01DX009 (ip), vehicle: saline) was 0 of 6.

In the case of `Nc1ccc(SS(N)(=O)=O)cc1`, the survivor count [4] is reported as 3 of 6.

With `CCNS(=O)(=O)c1ncnc2nc[nH]c12` the T/C [6] was 127 % of control and the T/C (dose: 150.0 mg/kg/injection, schedule: Q01DX Z (ip), vehicle: carboxymethylcellulose (CMC)) was 141 % of control.

In the case of `O=C(O)COc1ccccc1OCC(=O)O`, the survivor count [7] is reported as 6 of 6.

With `CC1=NN(c2cccc(Cl)c2)C(=O)C1` the survivor count [8] was 6 of 6 and the survivor count (dose: 400.0 mg/kg/injection, schedule: Q01DX009 (ip), vehicle: saline with Tween-80) was 3 of 6.

For `NC(=Nc1ccc([N+](=O)[O-])cc1)c1ccc(C(N)=Nc2ccc([N+](=O)[O-])cc2)cc1`, the survivor count [1] was 6 of 6, the survivor count [2] was 3 of 6 and the survivor count [3] was 5 of 6.

For `O=C(NC(CSC(c1ccccc1)c1ccccc1)C(=O)O)OCc1ccccc1` (configuration not stated), the survivor count [9] was 3 of 6 and the survivor count [7] was 0 of 6.

In the case of `O=P(N=C=S)(N=C=S)N=C=S`, the survivor count (dose: 150.0 mg/kg/injection, schedule: Q01DX001 (ip), vehicle: other) is reported as 1 of 6 and the survivor count (dose: 300.0 mg/kg/injection, schedule: Q01DX001 (ip), vehicle: other) is reported as 0 of 6.

For `O=C(Nc1ccc(C2=NCCN2)cc1)c1ccc(Br)c(C(=O)Nc2ccc(C3=NCCN3)cc2)c1`, the survivor count (dose: 40.0 mg/kg/injection, schedule: Q01DX Z (ip), vehicle: water) was 0 of 6, the survivor count (dose: 60.0 mg/kg/injection, schedule: Q01DX Z (ip), vehicle: saline) was 1 of 6 and the survivor count (dose: 120.0 mg/kg/injection, schedule: Q01DX Z (ip), vehicle: saline) was 0 of 6.

`CNC(=O)OCc1c(COC(=O)NC)c(-c2ccc(Cl)c(Cl)c2)n2c1CCC2` was tested, and the survivor count [10] was 3 of 3 and the survivor count [9] was 3 of 3.

`C=COC(=O)NC(C(=O)O)C(C)C` (configuration not stated) was tested, and the survivor count [11] was 2 of 6 and the survivor count [4] was 0 of 6.

In the case of `ClC1(Cl)Cc2ccccc21`, the T/C [8] is reported as 134 % of control and the T/C [12] is reported as 135 % of control.

In the case of `CC(=O)OC(C)(C)C1CCC2(C)COC3(C)CC(=O)OC23C1` (configuration not stated), the survivor count (dose: 112.0 mg/kg/injection, schedule: Q04DX003 (ip), vehicle: saline) is reported as 0 of 4.

`CCOC(=O)C1SC(N)=NC1=O` (configuration not stated) was tested, and the survivor count [12] was 1 of 3.

`CN1CCC(OC(=O)C(F)(c2ccccc2)c2ccccc2)CC1` was tested, and the survivor count (dose: 40.0 mg/kg/injection, schedule: Q01DX001 (ip), vehicle: saline) was 3 of 6, the survivor count (dose: 80.0 mg/kg/injection, schedule: Q01DX001 (ip), vehicle: saline) was 0 of 6 and the survivor count [13] was 0 of 6. The survivor count [11] was 0 of 6 and the survivor count [4] was 0 of 6.

With `CCC(O)C1CCCCN1` (configuration not stated) the survivor count [12] was 1 of 6.

With `NC(=O)CN1C(=O)C2C3CCC(O3)C2C1=O` (configuration not stated) the survivor count (dose: 200.0 mg/kg/injection, schedule: Q04DX003 (ip), vehicle: saline) was 0 of 3.

With `COS(=O)(=O)CCC[N+](C)(C)C` the survivor count [13] was 0 of 4, the survivor count [11] was 0 of 4 and the survivor count [4] was 0 of 4.

In the case of `CCCCCCCCCCCCCCCCCCNC(=S)SCCCC`, the survivor count (dose: 100.0 mg/kg/injection, schedule: Q04DX002 (ip), vehicle: saline + alcohol) is reported as 3 of 3 and the survivor count (dose: 200.0 mg/kg/injection, schedule: Q04DX002 (ip), vehicle: saline + alcohol) is reported as 3 of 3.

In the case of `CC(=O)NC1CCc2ccccc2-c2cccc(=O)cc21` (configuration not stated), the T/C (dose: 0.2 mg/kg/injection, schedule: Q01DX009 (ip), vehicle: saline) is reported as 131 % of control, the T/C (dose: 0.39 mg/kg/injection, schedule: Q01DX009 (ip), vehicle: Klucel (hydroxypropylcellulose) (HPC)) is reported as 132 % of control and the T/C (dose: 0.39 mg/kg/injection, schedule: Q01DX009 (ip), vehicle: saline) is reported as 132 % of control. The survivor count (dose: 1.56 mg/kg/injection, schedule: Q01DX009 (ip), vehicle: Klucel (hydroxypropylcellulose) (HPC)) was 3 of 6, the survivor count (dose: 3.13 mg/kg/injection, schedule: Q01DX009 (ip), vehicle: Klucel (hydroxypropylcellulose) (HPC)) was 3 of 6 and the survivor count (dose: 6.25 mg/kg/injection, schedule: Q01DX009 (ip), vehicle: Klucel (hydroxypropylcellulose) (HPC)) was 0 of 6. The survivor count (dose: 12.5 mg/kg/injection, schedule: Q01DX009 (ip), vehicle: Klucel (hydroxypropylcellulose) (HPC)) was 0 of 6, the survivor count (dose: 25.0 mg/kg/injection, schedule: Q01DX009 (ip), vehicle: Klucel (hydroxypropylcellulose) (HPC)) was 0 of 6 and the survivor count (dose: 50.0 mg/kg/injection, schedule: Q01DX009 (ip), vehicle: Klucel (hydroxypropylcellulose) (HPC)) was 0 of 6. The survivor count [10] was 0 of 6, the survivor count [9] was 0 of 6 and the survivor count [7] was 0 of 6.

In the case of `S=c1[nH]c(=S)c2[nH]cnc(=S)c2[nH]1`, the survivor count (dose: 50.0 mg/kg/injection, schedule: Q01DX Z (ip), vehicle: carboxymethylcellulose (CMC)) is reported as 3 of 6, the survivor count [6] is reported as 1 of 6 and the survivor count (dose: 200.0 mg/kg/injection, schedule: Q01DX Z (ip), vehicle: carboxymethylcellulose (CMC)) is reported as 0 of 6.

With `CN1CC2([N+](=O)[O-])C=CCC([N+](=O)[O-])(C1)C2` (configuration not stated) the survivor count (dose: 400.0 mg/kg/injection, schedule: Q01DX009 (ip), vehicle: water) was 3 of 6.

`CCC(=O)O[C@H]1CC[C@H]2[C@@H]3[C@@H](C)CC4=CC(=O)CC[C@]4(C)[C@H]3CC[C@]12C` was tested, and the survivor count (dose: 200.0 mg/kg/injection, schedule: Q01DX009 (ip), vehicle: saline with Tween-80) was 6 of 6.

`Cc1cccc(CN2CCN(C(c3ccccc3)c3ccc(Cl)cc3)CC2)c1` (configuration not stated) was tested, and the survivor count [7] was 0 of 6.

In the case of `Cn1nc(N)c2ncc(C(Cl)(Cl)Cl)nc21`, the survivor count (dose: 100.0 mg/kg/injection, schedule: Q01DX009 (ip), vehicle: saline with Tween-80) is reported as 1 of 6.

From PubChem BioAssay AID248 (DTP/NCI, 2004)
